This experiment addresses HA-mLST8 expressed in HT29 cells (human) (UniProt Q9BVC4). Description: co-IP.

Protein sequences, listed by entry. Tags and fused reporters are not part of them.
UniProt Q15386: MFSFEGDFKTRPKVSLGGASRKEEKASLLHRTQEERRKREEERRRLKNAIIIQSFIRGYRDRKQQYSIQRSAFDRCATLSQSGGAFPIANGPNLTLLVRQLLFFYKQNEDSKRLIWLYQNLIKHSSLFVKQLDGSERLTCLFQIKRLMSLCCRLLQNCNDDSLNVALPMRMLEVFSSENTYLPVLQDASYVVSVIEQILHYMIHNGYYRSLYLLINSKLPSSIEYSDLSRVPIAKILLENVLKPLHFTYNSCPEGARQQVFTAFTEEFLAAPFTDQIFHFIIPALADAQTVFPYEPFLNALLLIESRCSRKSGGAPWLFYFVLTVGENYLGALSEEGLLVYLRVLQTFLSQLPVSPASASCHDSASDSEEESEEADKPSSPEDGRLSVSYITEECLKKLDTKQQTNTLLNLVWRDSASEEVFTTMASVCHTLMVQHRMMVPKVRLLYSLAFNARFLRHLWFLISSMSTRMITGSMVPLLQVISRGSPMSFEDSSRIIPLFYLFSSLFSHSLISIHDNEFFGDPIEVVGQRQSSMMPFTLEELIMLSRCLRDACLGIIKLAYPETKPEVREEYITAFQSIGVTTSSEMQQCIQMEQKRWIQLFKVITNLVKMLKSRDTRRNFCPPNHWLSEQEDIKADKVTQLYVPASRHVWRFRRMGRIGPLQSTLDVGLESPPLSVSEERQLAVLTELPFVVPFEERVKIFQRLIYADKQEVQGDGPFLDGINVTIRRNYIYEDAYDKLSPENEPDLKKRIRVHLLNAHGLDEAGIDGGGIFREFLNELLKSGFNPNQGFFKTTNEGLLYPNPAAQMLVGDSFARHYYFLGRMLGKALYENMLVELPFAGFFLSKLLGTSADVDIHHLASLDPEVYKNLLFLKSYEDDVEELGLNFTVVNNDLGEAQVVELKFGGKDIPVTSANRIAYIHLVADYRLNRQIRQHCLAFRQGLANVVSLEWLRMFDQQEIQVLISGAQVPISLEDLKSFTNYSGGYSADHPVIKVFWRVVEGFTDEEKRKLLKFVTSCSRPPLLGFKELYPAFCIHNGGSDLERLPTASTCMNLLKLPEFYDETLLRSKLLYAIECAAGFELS

Results are given in words; binding and its absence hold for the method and conditions named. Binding seen in cells or lysates may run through a third protein. Some results given as binding are weak or reduced against the parent protein; the word gives no strength.

As to “E3 ubiquitin ligase UBE3C, endogenous (from UniProt Q15386 1-1083) (enzyme)”, the binding result is reported as “binds”.

The values are drawn from article doi:10.1101/2025.03.10.642361.
